Experimental data taken from patent US20100113379A1, “cAMP DEPENDENT INDUCTION OF AUTOPHAGY” (priority 2007, published 2010).
For at least one compound, name, drawing or mass did not settle the structure.

Assays:
[1] = tested on: COS-7 cells transfected with EGFP-HDQ74; test: EGFP-HDQ74 aggregate formation in transfected COS-7 cells (odds ratio); details: 500 μM 2′5′ ddA, 1 mM db-cAMP, 24 μM forskolin, 48 hr post-transfection, FIG. 6
[2] = tested on: Rap2B; test: Rap2B activation in PC12 cells; format: cell-based; details: PC12 cells treated with forskolin
[3] = tested on: Flies expressing a mutant huntingtin fragment with 120Q in the photoreceptors; test: Fly HD model: photoreceptor degeneration, rhabdomere counts by pseudopupil technique; format: in vivo, Drosophila

C=C[C@@]1(C)CC(=O)[C@]2(O)[C@@]3(C)[C@@H](O)CCC(C)(C)[C@@H]3[C@H](O)[C@H](OC(C)=O)[C@@]2(C)O1 [forskolin, 7β-Acetoxy-8,13-epoxy-1α,6β,9α-trihydroxylabd-14-en-11-one]
EGFP-HDQ74 aggregation [1]: opposite effects
Rap2B activation [2]: activation

COCCOC(=O)C1=C(C)NC(C)=C(C(=O)OC(C)C)C1c1cccc([N+](=O)[O-])c1 (stereo not shown) [nimodepine, nimodipine]
neurodegeneration in HD flies (decrease in number of visible rhabdomeres) ([3]; in fly food, 1.87 mM verapamil hydrochloride, 500 μM clonidine, nimodipine, tyramine or loperamide, 2 days after eclosion, DMSO control, FIG. 21): attenuated

CCCC(CCC)C(=O)O [valproate]
neurodegeneration in HD flies ([3]; valproate, concentration not given): protective effects
